Measurements as given in PubChem BioAssay AID2685 (National Center for Advancing Translational Sciences (NCATS), 2010).
The list shows a part of the results. The main result of the screen is listed elsewhere. These columns were measured beside it and carry no call. Most of these compounds were active or inconclusive in the main read-out, so they are no random draw. Potencies come from curve fits of mixed quality, noted in brackets.

Assay: qHTS Assay for Lipid Storage Modulators in Drosophila S3 Cells;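 on cell number change: cells counted by Cell Tracker Red CMTPX staining in the red channel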
Conditions: BODIPY lipid droplet fluorescence, 18-24 h; for cell number change: measured here: cell count max response, cells fed with added oleic acid
Procedure, shortened: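 Drosophila S3 cells got compounds at several concentrations plus oleic acid (400 uM solution). Laser-scanning cytometry with 488 nm excitation read lipid droplets at 500-530 nm and cells at 575-640 nm. Percent activity was relative to 20 uM Triacsin C.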

[1] = measured here: lipid fluorescence (Fed channel) AC50, cells fed with added oleic acid
[2] = measured here: cell number channel AC50, cells fed with added oleic acid

O=C(O)CCCCCN1C(=O)C(O)=C(C(=O)/C=C/c2ccccc2)C1c1ccccc1[N+](=O)[O-] (configuration not stated)
cell number change: 14.2%

Cc1ccc(C)c(/C=N/n2cc(-c3ccccc3)[nH]c2=S)c1
cell number change: -3.53% | AC50 [1]: 116 nM [falling, full curve, poor fit]

COc1cccc(NC(=O)CN(C)CC(=O)Nc2ccc(C)c([N+](=O)[O-])c2)c1
cell number change: -44.4% | AC50 [2]: 7310 nM [falling, single point] | AC50 [1]: 14600 nM [rising, partial curve]

Cc1ccc(NC(=O)COC(=O)c2ccc(-n3cnnn3)cc2)c(Br)c1
cell number change: -7.27% | AC50 [1]: 517 nM [falling, single point]

O=C(CCn1cccn1)N1CCCC(N2CCN(c3cccc(C(F)(F)F)c3)CC2)C1 (configuration not stated)
cell number change: -13.9% | AC50 [2]: 259 nM [rising, full curve, poor fit] | AC50 [1]: 29100 nM [falling, single point]

CCOC(=O)CC1=C(C#N)C(c2cccnc2)C(C(=O)OCC)=C(N)O1 (configuration not stated)
cell number change: -7.64% | AC50 [1]: 116 nM [rising, full curve, poor fit]

CCn1ccnc1CN(C)C(=O)c1ccc(OC2CCN(CCc3ccccc3)CC2)cc1
AC50 [1]: 29100 nM [rising, single point]

CC1CCN(C(=O)CSc2nnc(Cc3cccn3C)n2-c2ccc(F)cc2)CC1
cell number change: 21.9% | AC50 [1]: 580 nM [falling, single point]

O=c1oc(-c2ccccc2Cl)nc2ccsc12
cell number change: -9.89% | AC50 [1]: 29100 nM [rising, single point]

CC(=O)Nc1nnc(C2=COCCO2)o1
AC50 [1]: 2910 nM [rising, single point]

CN(C)C(CNC(=O)CCc1nc2cc(Cl)ccc2n(Cc2ccccc2)c1=O)c1ccccc1 (configuration not stated)
cell number change: 78.8% | AC50 [2]: 9200 nM [rising, partial curve]

CC(=O)c1ccc(N2CCN(C(=O)Nc3ccc(F)cc3)CC2)cc1
cell number change: 14.9% | AC50 [1]: 29100 nM [rising, single point]

CN(C)c1ccc(/C=N\NC(=O)CC#N)cc1
cell number change: 3.51% | AC50 [2]: 651 nM [falling, partial curve, poor fit] | AC50 [1]: 6510 nM [falling, partial curve, poor fit]

Nc1c(NCCC2=CCCCC2)c(=O)[nH]c(=O)n1Cc1ccccc1
cell number change: -16.6% | AC50 [2]: 130 nM [falling, full curve, poor fit] | AC50 [1]: 291 nM [falling, full curve, poor fit]

O=C(Nc1ccc2[nH]c(=O)[nH]c2c1)c1ccc(Br)o1
cell number change: 22.6%

CCCOc1ccc(CSc2nc3ccccc3[nH]2)cc1
cell number change: -36.8% | AC50 [2]: 6510 nM [falling, partial curve] | AC50 [1]: 10300 nM [falling, partial curve]

COc1ccc(NC(=O)c2cc(-c3ccc(C)c(C)c3O)n[nH]2)cc1Cl
cell number change: -31.4% | AC50 [2]: 29100 nM [falling, single point] | AC50 [1]: 9200 nM [falling, partial curve]

COc1ccc(OC)c(NC(=O)CCC(=O)Nc2nnc(C(C)C)s2)c1
cell number change: 43.2% | AC50 [2]: 16400 nM [rising, single point]

CCCC(=O)N1CCN(c2ccc(NC(=O)c3cc4ccccc4o3)cc2Cl)CC1
cell number change: -41.9% | AC50 [2]: 29100 nM [falling, single point] | AC50 [1]: 29100 nM [falling, single point]

CC(=O)Nc1ccc(NC(=O)C(C)OC(=O)c2cc(S(=O)(=O)N3CCOCC3)ccc2Cl)cc1 (configuration not stated)
cell number change: -24.9% | AC50 [1]: 23100 nM [falling, partial curve, poor fit]

CCOc1ccccc1NC(=O)Nc1cc(OC)ccc1OC
AC50 [2]: 731 nM [rising, full curve] | AC50 [1]: 2590 nM [rising, partial curve]

Cc1ccc(Cl)cc1N1CCN(S(=O)(=O)c2ccc3c(c2)NC(=O)C(C)C(=O)N3)CC1 (configuration not stated)
cell number change: 32.3% | AC50 [2]: 29100 nM [rising, single point]

COc1ccc(-c2[nH]ncc2/C=N/NC(=O)c2ccncc2)c(OC)c1
cell number change: 11.2% | AC50 [2]: 51.7 nM [rising, full curve, poor fit]

O=S(=O)(c1ccc(F)c(F)c1F)N1CCN(C(=S)NCc2ccccc2)CC1
AC50 [2]: 517 nM [rising, single point]

Cc1ccccc1C(=O)O/N=C/c1c(N2CCOCC2)n(C)c2ccccc12
cell number change: -3.83% | AC50 [2]: 164 nM [rising, full curve, poor fit] | AC50 [1]: 291 nM [rising, full curve, poor fit]

Cc1ccc(CNC(=O)CCS(=O)(=O)Cc2ccc(C)cc2)cc1
cell number change: -15.3%

Cc1noc(C)c1C(=O)OCC(=O)NCCC1=CCCCC1
cell number change: 20.5% | AC50 [1]: 103 nM [falling, full curve, poor fit]

CCC(=O)Nc1ccc(C(=O)NNC(=O)c2ccc(Cl)cc2)cc1
cell number change: 11.6% | AC50 [1]: 4.61 nM [falling, full curve, poor fit]

CCN1CCN(c2ccc(S(=O)(=O)N3CCOCC3)cc2NC(=O)/C=C/c2ccc(C)cc2)CC1
cell number change: -0.878% | AC50 [1]: 651 nM [falling, single point]

CC(=O)c1cccc(NC(=S)NC(=O)c2ccccc2Cl)c1
cell number change: 6.51% | AC50 [1]: 164 nM [rising, full curve, poor fit]

COC(=O)c1ccc(NC(=O)Cn2nnc(-c3cccs3)n2)cc1
cell number change: -12.1% | AC50 [1]: 326 nM [falling, full curve, poor fit]

Cc1ccc(NC(=O)c2nc[nH]c2C(=O)N2CCc3ccccc3C2)cc1
cell number change: -30.4% | AC50 [2]: 4610 nM [falling, single point]

Cn1cc(CNC(=O)C2CCC(=O)N(Cc3cccc(C(F)(F)F)c3)C2)cn1 (configuration not stated)
cell number change: -15% | AC50 [1]: 6510 nM [rising, partial curve, poor fit]

COc1cc(C)ccc1OCCOCCOc1ccccc1Br
cell number change: -17.2% | AC50 [1]: 20600 nM [falling, single point]

COc1cc(NC(=O)CCC2CCCC2)cc(-n2cnnn2)c1
cell number change: -0.365% | AC50 [1]: 92 nM [rising, full curve, poor fit]
